Values quoted from earlier work, collected in US20090169540A1, “Use Of An Antagonist Of Epac For Treating Human Cardiac Hypertrophy” (priority 2005, published 2009).
Read-outs that look alike come from different tables or passages of the source.

Conditions: cited from earlier work

Compound: CCCCc1oc2ccccc2c1C(=O)c1cc(I)c(OCCN(CC)CC)c(I)c1 [Amiodarone]
- Pulmonary toxicity incidence (as high as, in some reports): 10%-17%
- Pulmonary toxicity incidence (in some studies): 2%-7%
